Reference: US20170015748A1 (NATIONAL RESEARCH COUNCIL OF CANADA, published 2017)

Biological target: Insulin receptor
Test: SPR

binding: no binding
B1: IGF1R-5 VHH (VHH)
VHH: QVKLEESGGGLVQAGGSLRLSCAASGRTIDNYAMAWSRQAPGKDREFVATIDWGDGGARYANSVKGRFTISRDNAKGTMYLQMNNLEPEDTAVYSCAMARQSRVNLDVARYDYWGQGTQVTVSS
notes: Llama VHH expressed in E. coli TG1 from vector pSJF2H and purified by IMAC; Monomeric by SEC; also called anti-IGF1R VHH IGF1R-5; wild-type IGF1R-5

Results are given in words; binding and its absence hold for the method and conditions named.
